Paper PMC3189488 (British journal of haematology, 2010)

Tested on: Hodgkin lymphoma (HL) cell lines
Experiment: cells
Details: Homo sapiens, 72 h, read-out: IC50 cell viability (MTS)

`O=C(CCCCCCC(=O)Nc1ccccc1)NO` [vorinostat, suberoylanilide hydroxamic] gave an IC50 of 1800 to 2800 nM.
